Results deposited as PubChem BioAssay AID652272 (Drosophila RNAi Screening Center, 2013).

Screen: 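Finding fly genes that regulate Hedgehog signal transduction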 (primary screen)
System: Drosophila clone 8 (Cl8) cells
Reagents: long dsRNA against Drosophila genes
Measurement: 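Plate reader light from a firefly reporter under a ptc promoter fragment that responds to Hedgehog, with Renilla light as transfection reference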
Reading the numbers: firefly Hh reporter signal: higher = more ptc reporter light; Renilla reference signal: higher = more Renilla control light
Call rule: 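Called a hit if the two-replicate mean z-score lies below -2 or above +3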
Calls: active = hit: reporter lowered or raised; inactive = not a hit
The screen tested about 21,000 reagents; below is a random part of those that have a named target and a result. In the full data, 503 (2.4%) were called active. 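Raw plate light values, not normalised; calls rest on replicate z-scores that were not deposited; hits include reporter decreases as well as increases.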 Names joined by + are all predicted targets of the reagent. The record does not give: the amount of reagent, the time to read-out.

| Target gene | PubChem SID | firefly Hh reporter signal, replicate 1 | firefly Hh reporter signal, replicate 2 | firefly Hh reporter signal, replicate 3 | Renilla reference signal, replicate 1 | Renilla reference signal, replicate 2 | Outcome |
| --- | --- | --- | --- | --- | --- | --- | --- |
| Duba | SID104190374 | 76573 | 64586 | – | 3191 | 3047 | inactive |
| CG33303 | SID104182640 | 95623 | 56681 | – | 2547 | 5138 | inactive |
| SNRPG | SID104199999 | 88019 | 1.38e5 | – | 3588 | 6211 | inactive |
| CG43312 | SID104191351 | 2.55e5 | – | – | 5306 | – | inactive |
| CG3589 | SID104184184 | 1.64e5 | 1.11e5 | – | 6113 | 2736 | inactive |
| PGAP1 | SID104198078 | 99479 | 71875 | – | 2473 | 2070 | inactive |
| Xpc | SID104187446 | 1.02e5 | 73496 | – | 3936 | 2523 | inactive |
| Polr3A | SID104199558 | 64249 | 1.61e5 | – | 2523 | 7209 | inactive |
| Sem1 | SID104182074 | 80100 | 45152 | – | 2490 | 5101 | inactive |
| Pus7 | SID104190495 | 22322 | 56864 | – | 2557 | 4129 | inactive |
| Orc6 | SID104187289 | 95337 | 46259 | – | 2226 | 2166 | inactive |
| nAChRbeta3 | SID104180117 | 1.14e5 | 97140 | – | 4749 | 4096 | inactive |
| CG7573 | SID104190676 | 29229 | 54452 | 42357 | 5401 | 3643 | inactive |
| Pgd | SID104198489 | 1.22e5 | 67308 | – | 2805 | 2261 | inactive |
| DIP-alpha | SID104197683 | 6.47e5 | 98996 | – | 3913 | 3913 | inactive |
| DIP-alpha | SID104197684 | 51872 | 40099 | – | 683 | 1753 | inactive |
| NC2alpha | SID104183851 | 91024 | 45622 | – | 3302 | 1844 | inactive |
| Cda5 | SID104179795 | 6.41e5 | 6.73e5 | 5.05e5 | 33763 | 5312 | inactive |
| Cda5 | SID104180321 | 1.38e5 | 69755 | – | 3259 | 1590 | inactive |
| Cda5 | SID104180324 | 1.35e5 | 93388 | – | 3382 | 1762 | inactive |
| CG13907 | SID104188169 | 1.13e5 | 1.14e5 | – | 4800 | 4571 | inactive |
| CG33158 | SID104189500 | 5.36e5 | 1.27e5 | – | 6273 | 6273 | inactive |
| CG33158 | SID104189501 | 1.28e5 | – | – | 8173 | 3993 | inactive |
| CG33158 | SID104190230 | 73568 | – | – | 4986 | 2531 | inactive |
| CG7881 | SID104184690 | 88252 | 45735 | – | 1704 | 4166 | inactive |
| Dhpr | SID104190927 | 57572 | 92402 | – | 3709 | 6549 | inactive |
| Sym | SID104192093 | 92928 | 63634 | – | 6503 | 4177 | active |
| alpha-Est10 | SID104192405 | 47233 | 95297 | – | 1121 | 2727 | inactive |
| CG12948 | SID104194368 | 75312 | 1.17e5 | – | 2162 | 2903 | inactive |
| Femcoat | SID104197853 | 72033 | 1.19e5 | – | 2215 | 4955 | inactive |
| CG14052 | SID104197699 | 83255 | 2.27e5 | – | 3273 | 10946 | inactive |
| CG14052 | SID104197984 | 88700 | 2.32e5 | – | 3949 | 10705 | inactive |
| Cda4 | SID104200415 | 1.02e5 | 2.23e5 | – | 3434 | 10065 | inactive |
| Cda4 | SID104200433 | 60056 | 1.60e5 | – | 1867 | 7164 | inactive |
| Cda4 | SID104200434 | 79729 | 2.43e5 | – | 3516 | 11123 | inactive |
| otu | SID104198603 | 76405 | 1.99e5 | – | 2813 | 8684 | inactive |
| Bin1 | SID104196635 | 82320 | 79337 | – | 2716 | 1979 | inactive |
| CG9400 | SID104199974 | 1.16e5 | 79459 | – | 2828 | 1664 | inactive |
| RpL23A | SID104188486 | 49850 | 35527 | – | 4765 | 2637 | active |
| CG32551 | SID104199051 | 4.89e5 | 2.18e5 | – | 25979 | 2819 | inactive |
| CG42394 + CG6567 | SID104192613 | 4.69e5 | – | – | 10029 | – | inactive |
| ric8b + ric8a | SID104197896 | 88021 | 2.87e5 | – | 2748 | 9992 | inactive |
| CG12814 | SID104194344 | 1.19e5 | 79539 | – | 5378 | 3448 | inactive |
| CG12814 | SID104194345 | 57994 | 98099 | – | 1960 | 2891 | inactive |
| CG15130 | SID104182222 | 82197 | 27092 | – | 2342 | 2432 | inactive |
| Sap-r | SID104196641 | 1.57e5 | 9.31e5 | 1.46e5 | 2988 | 5872 | inactive |
| CG42374 + Mettl5 | SID104190877 | 1.51e5 | 79181 | – | 6258 | 3136 | inactive |
| tilB | SID104200426 | 41174 | 1.31e5 | – | 1211 | 6324 | inactive |
| Golgin245 | SID104184166 | 1.46e5 | 1.14e5 | – | 5964 | 4842 | inactive |
| CG5958 | SID104182707 | 77144 | 52722 | – | 2288 | 5660 | inactive |
| Coa7 | SID104200759 | 1.37e5 | 2.07e5 | – | 5333 | 9484 | inactive |
| Pkc53E | SID104185428 | 91041 | 1.99e5 | – | 2465 | 8256 | inactive |
| Pkc53E | SID104187302 | 1.09e5 | 77979 | – | 4369 | 3322 | inactive |
| Syx18 | SID104194420 | 1.02e5 | 97587 | – | 4467 | 4411 | inactive |
| Sox14 | SID104184448 | 1.63e5 | 65987 | – | 4173 | 6051 | inactive |
| Yod1 | SID104190225 | 1.85e5 | 1.22e5 | – | 7328 | 4832 | inactive |
| tRNA:Leu-CAA-2-3 | SID104193425 | 43488 | 2.16e5 | – | 10720 | 5121 | inactive |

Records listed so far marked active, once more:
| Target gene | PubChem SID | firefly Hh reporter signal, replicate 1 | firefly Hh reporter signal, replicate 2 | firefly Hh reporter signal, replicate 3 | Renilla reference signal, replicate 1 | Renilla reference signal, replicate 2 | Outcome |
| --- | --- | --- | --- | --- | --- | --- | --- |
| Sym | SID104192093 | 92928 | 63634 | – | 6503 | 4177 | active |
| RpL23A | SID104188486 | 49850 | 35527 | – | 4765 | 2637 | active |
